## Percent effect of library compounds

Data taken from ChEMBL document CHEMBL3988442, “University of Dundee, Small-Polar-MMV Screening Library” (2021).

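Assay of Toxoplasma gondii numbers, read through their beta-galactosidase reporter with a colour substrate. Compounds at 10 µM. Higher reads as fewer parasites (inferred from which compounds were picked for retests). Of about 67,000 compounds tested this way, about 260 (0.38%) reached 50% or more in at least one test.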

Values are the deposited “Percent Effect”, in %.
The controls that fix the scale are not given in the record; negative values are as filed.
Compounds were drawn at random from those tested, without regard to their results.

Result for Cc1noc(C)c1CN1CCC(c2nc3cc(Cl)ccc3o2)CC1 was 12.6%.
Result for CC(C)COC(=O)N1CC(=O)N(Cc2ccco2)CC(O)C1 (stereo not given) was -38.73%.
Result for Cl.NC(CC1CCCCC1)c1ccccc1 (stereo not given) was -7.744%.
Result for Cc1c(C(=O)NC2=NCCS2)cnn1-c1ccc(Cl)cc1 was 17.39%.
Result for COc1ccccc1C1Cn2ccnc2CN1Cc1c[nH]nc1C (stereo not given) was -3.036%.
Result for C=C(C)CN1CCCC(NS(C)(=O)=O)C1 (stereo not given) was 2.142%.
Result for Cc1cnn(C(C)C2CC2)c1NC(=O)c1ccncc1 (stereo not given) was -0.1838%.
Result for [H][C@@]12COC[C@]1(COC)CN(C(=O)COC)C2 was 10.88%.
Result for Cc1ncsc1C(=O)N(Cc1ccccn1)C1CC1 was 7.199%.
Result for CC(=O)N1CC2(CCN(C(=O)CO)CC2)c2cc(C)ccc21 was 2.716%.
Result for CC(=O)N1CCOC2(CCN(C(=O)c3cnoc3C)CC2)C1 was 1.328%.
Result for Cc1nn(C)c(N(C)C)c1CNCCOc1ccc2c(c1)OCO2.Cl was -0.3662%.
Result for [H][C@@]12CCCO[C@]1([H])[C@H](N1CCCC1=O)CN2Cc1cnn(C)c1 was 9.827%.
Result for c1ncn(CC2CN(CCCOc3ccc4c(c3)OCO4)CCO2)n1 (stereo not given) was -3.021%.
Result for O=C(c1ccccc1F)N1CCOC(c2nc(-c3ncccn3)no2)C1 (stereo not given) was 8.231%.
Result for COC(=O)c1cccn1C1CCN(Cc2cnc3ccccn23)CC1 was 14.66%.
Result for c1cc(-c2cnccn2)cc(-c2ccn(CCN3CCCC3)n2)c1 was 1.269%.
Result for COc1cc(C)nc(N2CCN(C(=O)CSC)CC2)n1 was 2.644%.
Result for CN(C)c1ccc(C(=O)N2CCCCC2CC(N)=O)c(F)c1 (stereo not given) was -0.06242%.
Result for O=C(CN1C=Nc2ccccc2S1(=O)=O)NCCc1cccs1 was -3.327%.
Result for COCCCn1ccnc1-c1cnc(OC)nc1 was -7.386%.
Result for Cn1ccnc1CCNC(=O)C1CCCN(Cc2cccc(F)c2)C1 (stereo not given) was 1.768%.
Result for O=C(O)C(F)(F)F.O=C(O)C(F)(F)F.[H][C@@]12CCCO[C@]1([H])[C@H](OCCCn1cccn1)CN2C1CCOCC1 was 30.16%.
Result for CCn1cc(Br)c(C(=O)NCc2ccc(F)cc2)n1 was 6.591%.
Result for Cc1nc[nH]c1CN1CCC(C2CCN(CCc3ccccc3)C2)CC1 (stereo not given) was 11.94%.
Result for Cc1nc(C)n(C2CCCN(C(=O)c3ccc(O)nc3)C2)n1 (stereo not given) was 18.87%.
Result for CC(C)(O)c1cn(C2CCN(C(=O)CCC3CCCC3)CC2)nn1 was -31.37%.
Result for CCOCCN(C)C(c1cccnc1)c1ccc(F)cc1F (stereo not given) was 19.63%.
Result for [H][C@@]12CN(CCN(C)C)C[C@]1([H])OCCN2Cc1cnn(C)c1 was -4.713%.
Result for Cc1cc(O)n2nc(C3CCN(C(=O)c4ccccn4)CC3)cc2n1 was -5.98%.
Result for CSc1ccc(NC(=O)COCc2ccccc2)nc1 was -36.93%.
Result for CNC(=O)CCC(=O)N1CCOC(c2ccc3cc(OC)ccc3c2)C1 (stereo not given) was 7.52%.
Result for O=C(c1ccccc1F)N1CC(c2nc(-c3ccc[nH]c3=O)no2)C1 was 28.57%.
Result for Cn1ncc2c1NC(=O)CC2c1cc(Cl)ccc1F (stereo not given) was -14.2%.
Result for CCOc1ccc(C(=O)N2CCCCC2Cn2nc(C)cc2C)cn1 (stereo not given) was -17.84%.
Result for Cn1cc(C(C)(O)CNc2ccccn2)cn1 (stereo not given) was 2.126%.
Result for O=C(O)C(F)(F)F.O=C(c1ccsc1)N1CCc2c(COCC3CC3)cncc2C1 was -1.71%.
Result for Cc1cc(C)nc(N2CCC(Cn3cc(C(=O)N(C)C)cn3)CC2)n1 was 9.643%.
Result for CC(=O)N1C[C@H](NS(=O)(=O)Cc2cccc(Cl)c2)[C@@H](C(C)C)C1 was 12.92%.
Result for CCOc1ccccc1OC1CCN(Cc2ccn(C)c(=O)c2)CC1 was 12.63%.
Result for O=C(O)C(F)(F)F.O=C(O)C(F)(F)F.[H][C@@]12CCCO[C@]1([H])[C@H](N(C)Cc1ccco1)CN(Cc1cccs1)C2 was 9.929%.
Result for Cn1ccc(N2CCCC(NC(=O)c3ccsc3)C2=O)n1 (stereo not given) was 2.692%.
Result for CNS(=O)(=O)c1ccc(CNC(=O)Nc2cc(C)on2)s1 was 1.418%.
Result for Cn1nc2c(cc1=O)CN(CC1CCCCO1)CC2 (stereo not given) was -12.49%.
Result for Cc1ncc(C(=O)NCCNC(=O)Cc2cccc(F)c2)s1 was 10.18%.
Result for CC(C)c1nnc(CN2CCCC2C(=O)OCc2ccccc2)o1 (stereo not given) was 5.192%.
Result for Cn1c(=O)[nH]c(=O)n2c(CC(=O)NCc3ccccc3)cnc12 was -0.7676%.
Result for Cc1ccccc1C(C(=O)N1CCN(C(=O)c2ccc[nH]2)CC1)N(C)C (stereo not given) was 11.58%.
Result for Cc1ccc(N2CC3(COCCN(Cc4cnn(C)c4)C3)OCC2=O)s1.O=C(O)C(F)(F)F (stereo not given) was 9.707%.

For reference, 6 entries once more:

SMILES,percent effect
CCn1cc(Br)c(C(=O)NCc2ccc(F)cc2)n1,6.591
Cn1ccnc1CCNC(=O)C1CCCN(Cc2cccc(F)c2)C1 (stereo not given),1.768
Cc1nc[nH]c1CN1CCC(C2CCN(CCc3ccccc3)C2)CC1 (stereo not given),11.94
[H][C@@]12CN(CCN(C)C)C[C@]1([H])OCCN2Cc1cnn(C)c1,-4.713
COC(=O)c1cccn1C1CCN(Cc2cnc3ccccn23)CC1,14.66
COc1ccccc1C1Cn2ccnc2CN1Cc1c[nH]nc1C (stereo not given),-3.036